In patent publication US6716964:
Results are given in words; binding and its absence hold for the method and conditions named. Tags and fused reporters may be left off the sequences shown.

Target: E1A exon 2 bait
Assay: yeast two-hybrid

B1: pGAD#9 prey (GAL4 activation domain fused to the C-terminal 864 residues of CtIP) (protein, not shown: large carriers)
chain: EVQGLQVKVTKLKQERILDAQRLEEFFTKNQQLREQQKVLHETIKVLEDRLRAGLCDRCAVTEEHMRKKQQEFENIRQQNLKLITELMNERNTLQEENKKLSEQLQQKIENDQQHQAAELECEEDVIPDSPITAFSFSGVNRLRRKENPHVRYIEQTHTKLEHSVCANEMRKVSKSSTHPQHNPNENEILVADTYDQSQSPMAKAHGTSSYTPDKSSFNLATVVAETLGLGVQEESETQGPMSPLGDELYHCLEGNHKKQPFEESTRNTEDSLRFSDSTSKTPPQEELPTRVSSPVFGATSSIKSGLDLNTSLSPSLLQPGKKKHLKTLPFSNTCISRLEKTRSKSEDSALFTHHSLGSEVNKIIIQSSNKQILINKNISESLGEQNRTEYGKDSNTDKHLEPLKSLGGRTSKRKKTEEESEHEVSCPQASFDKENAFPFPMDNQFSMNGDCVMDKPLDLSDRFSAIQRQEKSQGSETSKNKFRQVTLYEALKTIPKGFSSSRKASDGNCTLPKDSPGEPCSQECIILQPLNKCSPDNKPSLQIKEENAVFKIPLRPRESLETENVLDDIKSAGSHEPIKIQTRSDHGGCELASVLQLNPCRTGKIKSLQNNQDVSFENIQWSIDPGADLSQYKMDVTVIDTKDGSQSKLGGETVDMDCTLVSETVLLKMKKQEQKGEKSSNEERKMNDSLEDMFDRTTHEEYESCLADSFSQAADEEEELSTATKKLHTHGDKQDKVKQKAFVEPYFKGDERETSLQNFPHIEVVRKKEERRKLLGHTCKECEIYYADMPAEEREKKLASCSRHRFRYIPPNTPENFWEVGFPSTQTCMERGYIKEDLDPCPRPKRRQPYNAIFSPKGKEQKT
binding: no binding
